# The list shows a part of the results, in another mix than the full data. At the low end of the ranking the order means little.
# Sequences of proteins named here, by UniProt entry; tags and fusion partners are left off. A change or cut given only in a name is not applied to a line headed by its entry.
# UniProt Q9Y603: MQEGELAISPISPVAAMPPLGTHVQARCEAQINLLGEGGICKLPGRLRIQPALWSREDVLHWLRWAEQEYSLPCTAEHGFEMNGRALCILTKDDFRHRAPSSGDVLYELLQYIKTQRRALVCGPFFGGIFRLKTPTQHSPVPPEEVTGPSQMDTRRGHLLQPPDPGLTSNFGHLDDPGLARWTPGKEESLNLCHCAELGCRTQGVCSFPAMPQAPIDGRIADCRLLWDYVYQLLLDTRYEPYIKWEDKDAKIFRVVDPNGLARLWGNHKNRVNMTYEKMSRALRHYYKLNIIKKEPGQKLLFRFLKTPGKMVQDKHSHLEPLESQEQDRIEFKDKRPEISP
# UniProt P41212: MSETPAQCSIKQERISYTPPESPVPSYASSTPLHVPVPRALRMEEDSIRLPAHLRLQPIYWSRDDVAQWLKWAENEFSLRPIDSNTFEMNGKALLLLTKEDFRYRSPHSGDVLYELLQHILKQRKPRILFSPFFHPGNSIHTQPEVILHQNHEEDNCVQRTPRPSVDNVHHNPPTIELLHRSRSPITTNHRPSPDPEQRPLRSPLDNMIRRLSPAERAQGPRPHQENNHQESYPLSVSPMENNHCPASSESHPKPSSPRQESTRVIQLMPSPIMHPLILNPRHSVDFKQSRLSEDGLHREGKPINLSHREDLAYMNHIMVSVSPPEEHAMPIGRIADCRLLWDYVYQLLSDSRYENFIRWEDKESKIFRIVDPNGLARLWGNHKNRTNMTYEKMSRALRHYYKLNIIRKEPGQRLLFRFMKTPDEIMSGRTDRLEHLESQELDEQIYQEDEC
# What was measured:
# Assay in all cases: DAPPL (digital affinity profiling via proximity ligation, sequencing)
# Conditions in all cases: 10 mM Tris-HCl pH 7.5, 50 mM NaCl, 1 mM DTT, 4% glycerol, room temperature, 30 min; GST-TFs on glutathione beads, 16-mer random dsDNA library, 0.1% …; high values mean tight binding; double strand, one strand shown; scale: fold enrichment (6-mer frequency, TF over GST control)
# ELF3 = target: T1, ELF3 (UniProt P78545)
# T1 sequence: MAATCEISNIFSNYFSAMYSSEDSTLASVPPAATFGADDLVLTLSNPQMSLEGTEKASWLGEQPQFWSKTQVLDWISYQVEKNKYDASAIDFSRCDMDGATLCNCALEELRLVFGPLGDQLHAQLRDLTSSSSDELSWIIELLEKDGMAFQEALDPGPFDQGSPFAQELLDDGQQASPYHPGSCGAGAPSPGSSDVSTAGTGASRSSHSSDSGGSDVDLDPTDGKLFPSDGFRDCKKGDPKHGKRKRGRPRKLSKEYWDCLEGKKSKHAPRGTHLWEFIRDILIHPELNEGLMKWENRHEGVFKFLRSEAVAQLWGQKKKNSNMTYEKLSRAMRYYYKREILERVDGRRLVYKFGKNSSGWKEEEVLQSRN
# ETV7 = ETV7 (UniProt Q9Y603)
# ETV6 = ETV6 (UniProt P41212)
Sequence,binding signal (ELF3),binding signal (ETV7),binding signal (ETV6)
GGAAGC,1.48,1.62,
AAAAGC,1.22,,
TTTAGC,1.08,1.03,
CATCGA,1.04,1.13,
TTTACA,1.4,1.22,
ACTAGC,1.01,1.16,
GAATCT,1.03,1.03,
GATGAT,1.33,1.36,
GTCTAC,0.978,0.959,
TCGCAA,0.914,1.01,
GAAAGA,0.935,1.1,
CTCAGG,1.15,0.978,
TGAATT,1.12,,
GATGAA,0.979,1.24,
CAGAAT,0.821,0.964,
GCCCCT,1.24,1.22,
ATGTAA,1.39,1.26,

Sequence,binding signal (ELF3),binding signal (ETV7),binding signal (ETV6)
ACGGCC,0.961,1.13,
CAAAAA,1.12,1.1,
ATCAGC,1.13,0.958,
AGAAGC,1.09,,
CGAGTT,1.16,1.08,
TATACT,1.3,,1.45
ATCTCT,1.26,,1.27
TTGGTG,1.3,,1.18
CAATCA,1.12,,1.16
CCCACA,1.14,,1.14
CGATGA,0.954,,0.912
ACTTTA,1.23,,1.18
GTACTT,2.04,,2.47
GTGGCT,1.26,,1.07
TCGACC,1.23,,1.3
CTGGAC,0.962,,1.09

# Reference: article PMC7862700
